Consider six molecules from PMC5919683, “Transcription factor HAT1 is a substrate of SnRK2.3 kinase and negatively regulates ABA synthesis and signaling in Arabidopsis responding to drought” (PLoS Genetics, 2018).

Results are given in words; binding and its absence hold for the method and conditions named. Binding seen in cells or lysates may run through a third protein. Some binding calls cover weakened binding; strength is not graded here. Where a sequence is shown, tags or fusion partners need not be part of it.

In experiment [1] the target is T1, SnRK2.3-nYFP (Arabidopsis thaliana) (UniProt Q39193).
T1 sequence: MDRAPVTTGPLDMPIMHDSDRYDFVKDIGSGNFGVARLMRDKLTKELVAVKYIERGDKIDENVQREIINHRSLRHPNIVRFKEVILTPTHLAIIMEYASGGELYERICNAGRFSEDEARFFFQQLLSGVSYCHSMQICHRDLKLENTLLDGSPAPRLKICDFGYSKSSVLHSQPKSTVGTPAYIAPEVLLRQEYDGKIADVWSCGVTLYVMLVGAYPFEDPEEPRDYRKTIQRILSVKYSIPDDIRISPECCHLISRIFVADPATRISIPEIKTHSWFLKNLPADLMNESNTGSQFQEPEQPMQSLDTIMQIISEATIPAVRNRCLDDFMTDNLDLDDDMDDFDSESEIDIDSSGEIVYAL
Put plainly: split reporter; BiFC with halves of YFP in young leaves of Nicotiana benthamiana, agroinfiltrated, analysed 48 h after infiltration by fluorescence microscopy.

For experiment [2], the target named is T2, SnRK2.2-nYFP (Arabidopsis thaliana) (UniProt Q39192).
T2 sequence: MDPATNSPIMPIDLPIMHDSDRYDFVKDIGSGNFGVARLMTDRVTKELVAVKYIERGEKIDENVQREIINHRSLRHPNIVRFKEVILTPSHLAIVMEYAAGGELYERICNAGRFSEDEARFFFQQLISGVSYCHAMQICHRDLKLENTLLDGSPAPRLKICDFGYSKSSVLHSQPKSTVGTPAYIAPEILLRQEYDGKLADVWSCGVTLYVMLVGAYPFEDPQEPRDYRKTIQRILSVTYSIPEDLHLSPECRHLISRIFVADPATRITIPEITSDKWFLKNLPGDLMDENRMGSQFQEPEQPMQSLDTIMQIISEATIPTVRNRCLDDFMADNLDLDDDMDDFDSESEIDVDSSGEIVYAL
Described as above.

For experiment [3], the target named is HAT1-cYFP (Arabidopsis thaliana) (UniProt P46600). The description is as above.
Experiment [4] concerns the target T3, SnRK2.6-nYFP (Arabidopsis thaliana) (UniProt Q940H6).
T3 sequence: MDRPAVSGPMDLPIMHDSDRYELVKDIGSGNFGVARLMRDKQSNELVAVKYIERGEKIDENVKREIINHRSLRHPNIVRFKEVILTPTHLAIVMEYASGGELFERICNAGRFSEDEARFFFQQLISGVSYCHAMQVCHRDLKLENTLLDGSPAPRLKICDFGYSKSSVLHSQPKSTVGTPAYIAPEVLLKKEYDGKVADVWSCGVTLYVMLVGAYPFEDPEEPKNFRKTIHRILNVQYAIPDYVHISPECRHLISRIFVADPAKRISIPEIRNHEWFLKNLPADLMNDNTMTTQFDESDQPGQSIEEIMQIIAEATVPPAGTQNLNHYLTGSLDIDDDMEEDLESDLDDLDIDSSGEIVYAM
The description is as above.

The target of experiment [5] is T4, Myc-SnRK2.2 (Arabidopsis thaliana) (UniProt Q39192).
T4 sequence: T2 sequence
Put plainly: co-IP; Arabidopsis leaf protoplasts co-expressing Myc-SnRK2s and HAT1-Flag; extracts with Myc agarose beads at 4°C for 2 h; HAT1-Flag detected with anti-Flag antibody.

Experiment [6] concerns the target T5, Myc-SnRK2.3 (Arabidopsis thaliana) (UniProt Q39193).
T5 sequence: T1 sequence
Described as above.

Experiment [7] concerns the target T6, Myc-SnRK2.6 (Arabidopsis thaliana) (UniProt Q940H6).
T6 sequence: T3 sequence
Described as above.

B1: HAT3 (BiFC fusion) (protein, UniProt P46602 1-315)
chain: MSERDDGLGLSLSLSLGFNQKDPSSRLNPMPLASYASSSHMQHMQQSNYNHPQKIQNTWINMFQSSERNSDMRSFLRGIDVNRAPSTVVVDVEDEGAGVSSPNSTVSSVMSGKKSERELMAAAGAVGGGRVEDNEIERASCSLGGGSDDEDGSGNGDDSSRKKLRLSKEQALVLEETFKEHSTLNPKQKMALAKQLNLRTRQVEVWFQNRRARTKLKQTEVDCEYLKRCCENLTDENRRLQKEVSELRALKLSPHLYMHMKPPTTLTMCPSCERVAVTSSSSSVAPPVMNSSSPMGPMSPWAAMPLRQRPAAGSH
In the case of B1, the binding entry in experiment [1] is on record as “binds”.

B2: HAT1-3F (234–282) (domain or fragment, UniProt P46600 234-282)
chain: SPPTTLLMCPSCERVAGPSSSNHNQRSVSLSPWLQMAHGSTFDVMRPRS
On to B2, for which, in experiment [1], the binding result is “no binding”.

B3: HAT1-cYFP (protein, UniProt P46600 1-282)
chain: MMMGKEDLGLSLSLGFAQNHPLQLNLKPTSSPMSNLQMFPWNQTLVSSSDQQKQQFLRKIDVNSLPTTVDLEEETGVSSPNSTISSTVSGKRRSTEREGTSGGGCGDDLDITLDRSSSRGTSDEEEDYGGETCRKKLRLSKDQSAVLEDTFKEHNTLNPKQKLALAKKLGLTARQVEVWFQNRRARTKLKQTEVDCEYLKRCVEKLTEENRRLEKEAAELRALKLSPRLYGQMSPPTTLLMCPSCERVAGPSSSNHNQRSVSLSPWLQMAHGSTFDVMRPRS
Turning to B3, the binding entry in experiment [2] is “binds weakly”; in experiment [3], “binds”; in experiment [4] it was “binds weakly”; in experiment [1], “binds”.

B4: HAT1-Flag (protein, UniProt P46600 1-282)
chain: B3 chain
For the molecule B4, the binding result in experiment [5], in experiment [6] and in experiment [7] was “binds” in each case.

B5: HAT1-2F (192–282) (domain or fragment, UniProt P46600 192-282)
chain: TEVDCEYLKRCVEKLTEENRRLEKEAAELRALKLSPRLYGQMSPPTTLLMCPSCERVAGPSSSNHNQRSVSLSPWLQMAHGSTFDVMRPRS
For B5, the binding entry in experiment [1] was “no binding”.

B6: HAT1-1F (135–282) (domain or fragment, UniProt P46600 135-282)
chain: KKLRLSKDQSAVLEDTFKEHNTLNPKQKLALAKKLGLTARQVEVWFQNRRARTKLKQTEVDCEYLKRCVEKLTEENRRLEKEAAELRALKLSPRLYGQMSPPTTLLMCPSCERVAGPSSSNHNQRSVSLSPWLQMAHGSTFDVMRPRS
On to B6, for which the binding result in experiment [1] is recorded as “binds weakly”.
